Test results reported in paper PMC7862700.
This is a selection; strong and weak results do not stand in their true shares. For part of these data: At the low end of the ranking the order means little. The list shows a part of the results. For part of these data: The source does not settle which construct or isoform was used.

Key:
[1] = biological target: T1, ETS1 (UniProt P14921); assay: DAPPL (digital affinity profiling via proximity ligation, sequencing); conditions: 10 mM Tris-HCl pH 7.5, 50 mM NaCl, 1 mM DTT, 4% glycerol, room temperature, 30 min; GST-TFs on glutathione beads, 16-mer random dsDNA library, 0.1% …; high values mean tight binding; double strand, one strand shown; scale: fold enrichment (6-mer frequency, TF over GST control)
T1 sequence: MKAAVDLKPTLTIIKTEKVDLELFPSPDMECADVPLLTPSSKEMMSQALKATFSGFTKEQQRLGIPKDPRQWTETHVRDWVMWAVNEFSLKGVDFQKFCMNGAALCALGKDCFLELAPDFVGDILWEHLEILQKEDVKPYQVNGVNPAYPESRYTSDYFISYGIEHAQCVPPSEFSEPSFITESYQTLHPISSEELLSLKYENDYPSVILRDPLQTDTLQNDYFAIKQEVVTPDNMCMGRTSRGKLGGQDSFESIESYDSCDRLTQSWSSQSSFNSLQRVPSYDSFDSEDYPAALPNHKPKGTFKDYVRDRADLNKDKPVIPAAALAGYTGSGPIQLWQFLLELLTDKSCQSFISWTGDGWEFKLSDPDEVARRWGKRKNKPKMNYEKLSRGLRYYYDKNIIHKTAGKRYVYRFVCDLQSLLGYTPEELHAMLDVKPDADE

[2] = biological target: T2, SPDEF (UniProt O95238); assay: as above; conditions: 10 mM Tris-HCl pH 7.5, 50 mM NaCl, 1 mM DTT, 4% glycerol, room temperature, 30 min; GST-TFs on glutathione beads, 16-mer random dsDNA library, 0.1% …; high values mean tight binding; double strand, one strand shown; scale: fold enrichment (6-mer frequency, TF over GST control)
T2 sequence: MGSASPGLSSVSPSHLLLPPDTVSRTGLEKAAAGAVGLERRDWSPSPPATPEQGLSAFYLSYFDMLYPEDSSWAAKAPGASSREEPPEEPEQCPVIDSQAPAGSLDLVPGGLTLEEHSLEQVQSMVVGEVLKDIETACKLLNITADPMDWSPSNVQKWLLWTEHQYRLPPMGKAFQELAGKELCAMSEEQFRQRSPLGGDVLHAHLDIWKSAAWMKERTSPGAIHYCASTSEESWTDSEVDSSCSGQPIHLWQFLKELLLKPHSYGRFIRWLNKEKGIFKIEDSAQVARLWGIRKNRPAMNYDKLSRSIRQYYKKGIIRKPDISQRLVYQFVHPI

Row | Sequence | binding signal [1] | binding signal [2]
1 | CGAGCA | 1.09 | 1.18
2 | CATCAA | 1.05 | 0.964
3 | CGGCTG | 0.859 | 0.97
4 | CCTCCG | 1.31 | 1.36
5 | ATAGGC | 0.953 | 0.976
6 | CATTTT | 1.31 | 1.06
7 | GGCTCG | 1.05 | 0.956
8 | GTAAAT | 1.15 | 1.13
9 | TCATGA | 1.01 | 0.947
10 | ACAGCC | 1.06 | 1.02
11 | CATTGC | 1.03 | 0.954
12 | ACTATC | 1.19 | 1.18
13 | ACACAT | 1.27 | 1.31
14 | TCCTGT | 1.93 | 2.32
15 | GACTTC | 2.35 | 2.13
16 | CATTGA | 0.956 | 0.881
17 | CTTTGA | 1.24 | 1.1
18 | AGGCTT | 1.04 | 0.953
19 | CTCTAC | 1.54 | 1.54
20 | CACCCC | 1.29 | 1.24
21 | TTCAGG | 1.15 | 1.25
22 | GGTATC | 1.1 | 1.33
23 | TCAAAA | 1.16 | 1.06
24 | AAGGAT | 1.14 | 1.37

Looked up one by one from the list above, two records:
Row | Sequence | binding signal [1] | binding signal [2]
22 | GGTATC | 1.1 | 1.33
1 | CGAGCA | 1.09 | 1.18

Next records.

Row | Sequence | binding signal [1] | binding signal [2]
25 | ATCAGA | 0.939 | 0.937
26 | TACCCC | 1.1 | 1.02
27 | AAGCTG | 1.17 | 0.992
28 | CATTCA | 1.16 | 0.986
29 | TCGCCG | 1.16 | 1.01
30 | TTTCGC | 1.08 | 0.998
31 | AAGTGT | 1.18 | 1.32
32 | AATATT | 1.28 | 1.25
33 | CACACC | 1.05 | 1.02
34 | TAGAAT | 1.12 | 1.07
35 | CCGGCT | 1.64 | 2.32
36 | ATCGCA | 1.06 | 0.993
37 | CGGGCT | 0.876 | 1.07
38 | TAGCAG | 0.975 | 0.964
39 | AAGCCC | 1.14 | 0.966
40 | TGTTCC | 1.76 | 2.03
41 | GTTACT | 1.35 | 1.18
42 | TGTCAA | 1.06 | 0.955
43 | CTACCA | 1.27 | 1.23
44 | CTTCCC | 2.15 | 2.14
45 | CGGATC | 0.965 | 1.67
46 | CTGCGC | 1.39 | 1.12
47 | TGATTA | 1.07 | 1.01
48 | CATCAT | 1.01 | 0.94

Row | Sequence | binding signal [1] | binding signal [2]
49 | AGCAAA | 1.01 | 0.973
50 | AGCCTA | 1.03 | 0.963
51 | AGCTCG | 1.06 | 0.935
52 | CGTAAC | 1.15 | 1.17
53 | GCAACA | 1 | 0.957
54 | CTCTCC | 1.41 | 1.22
55 | CCTAAT | 1.25 | 1.36
56 | TGCGAA | 1.06 | 1.2
57 | TTGTAT | 1.27 | 1.41
58 | GATTAA | 0.97 | 1.08
59 | CTCGTT | 1.38 | 1.27
60 | CACCCA | 1.12 | 0.995
61 | TCTGAA | 1.19 | 1.23
62 | ACTCAT | 1.24 | 1.24
63 | TGTCCG | 1.51 | 1.8
64 | GCCTAG | 0.941 | 0.975
65 | TGTTGC | 1.25 | 1.33
66 | CCCTAT | 1.32 | 1.31
67 | TCCTGG | 1.59 | 2.13
68 | ACAGCA | 0.961 | 0.984
69 | CACCGG | 1.05 | 1.08
70 | GCTAGA | 1.03 | 0.979
71 | CTTTAC | 1.38 | 1.35
72 | GCGATA | 1.1 | 0.97

Row | Sequence | binding signal [1] | binding signal [2]
73 | TTGGTA | 1.14 | 1.23
74 | ATGGGG | 1.14 | 0.916
75 | GCAATC | 1 | 0.976
76 | CCACAT | 1.24 | 1.22
77 | ATAAAG | 1.1 | 0.984
78 | CGCACG | 1.11 | 0.94
79 | AAGTAG | 1.21 | 1.07
80 | TGCCCC | 1.25 | 1.21
81 | ACGAGC | 0.966 | 0.903
82 | GTACTG | 1.09 | 1.03
83 | TTGTTG | 1.03 | 1.11
84 | TCAAAT | 1.05 | 1.11
85 | TCTGGT | 1.31 | 1.28
86 | CGTCGC | 1.05 | 1.24
87 | ATGCGA | 1.24 | 1.18
88 | TAAACT | 1.19 | 1.01
89 | CCCACC | 1.27 | 1.12
90 | TTGGCG | 1.05 | 0.952
91 | AGTATG | 1.11 | 0.815
92 | CATGCG | 0.942 | 1.01
93 | TCACCG | 1.06 | 0.977
94 | GGTAAC | 1.02 | 0.972
95 | TACCGG | 1.52 | 1.77
96 | CTCACC | 1.13 | 1.12

An excerpt of these results, with tabs.
Row	Sequence	binding signal [1]	binding signal [2]
94	GGTAAC	1.02	0.972
95	TACCGG	1.52	1.77

(next part)

Row | Sequence | binding signal [1] | binding signal [2]
97 | GGTCTG | 0.976 | 0.992
98 | TTAGCC | 1.08 | 1
99 | AACTTG | 1.21 | 1.14
100 | GTGTTT | 1.19 | 1.22
101 | TTGAAA | 1.22 | 1.07
102 | TTATCC | 1.41 | 1.76
103 | ACGCCT | 1.24 | 1.12
104 | TGGTCA | 1.13 | 0.972
105 | TGCCTA | 1.11 | 1.03
106 | CCGGGT | 1.16 | 1.79
107 | ATAGTC | 0.901 | 0.864
108 | TCAGAT | 1.06 | 1.07
109 | TAGGAA | 1.12 | 1.11
110 | TATTTG | 1.45 | 1.32
111 | TCATTG | 1.02 | 0.908
112 | GCGCTT | 1.21 | 1.2
113 | CCTCAG | 1.25 | 1.1
114 | ATTCTT | 1.47 | 1.34
115 | CGTCAT | 0.962 | 0.984
116 | CTTAAA | 1.23 | 1.27
117 | CCTTCC | 2.37 | 2.44
118 | CCTCGG | 1.17 | 1.04
119 | CACGCA | 1.09 | 0.989
120 | TATCTT | 1.3 | 1.32
